# This is one part of the list.
# Columns and labels:
# Assay in all cases: glycan array binding signal (z-score within array); higher = stronger binding
# Details in all cases: glycan notation: IUPAC condensed, linker removed
# [1] = biological target: Fuc(a1-3)[Gal(b1-4)]GlcNAc
# Method in brief: (§1)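 The binding signal is a Z-score computed within each array. Data were drawn from 3228 arrays in the Consortium for Functional Glycomics database, restricted to those with a known protein sequence. Scores were averaged over arrays of the same protein sequence at different concentrations or buffers, and over linkers, and negative values can be taken as non-binding.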
# [2] = biological target: Fuc(a1-3)[Gal(b1-4)]GlcNAc(b1-3)Gal(b1-3)[Fuc(a1-4)]GlcNAc
# Method in brief: as §1
# [3] = biological target: Fuc(a1-3)[Gal(b1-4)]GlcNAc(b1-4)Gal(b1-4)[Fuc(a1-3)]GlcNAc
# Method in brief: as §1
# [4] = biological target: Fuc(a1-3)[Gal(b1-4)]GlcNAc(b1-4)Gal(b1-4)[Fuc(a1-3)]GlcNAc(b1-4)Gal(b1-4)[Fuc(a1-3)]GlcNAc
# Method in brief: as §1
# [5] = biological target: Fuc(a1-3)[Gal(b1-4)]GlcNAc6S
# Method in brief: as §1
# [6] = biological target: Fuc(a1-3)[Gal3S(b1-4)]Glc6S
# Method in brief: as §1
# [7] = biological target: Fuc(a1-3)[Gal3S(b1-4)]GlcNAc
# Method in brief: as §1
# [8] = biological target: Fuc(a1-3)[Gal3S(b1-4)]GlcNAc6S
# Method in brief: as §1
# [9] = biological target: Fuc(a1-3)[GalNAc(b1-4)]GlcNAc
# Method in brief: as §1
# [10] = biological target: Fuc(a1-4)GlcNAc
# Method in brief: as §1
# [11] = biological target: Fuc(b1-3)GlcNAc
# Method in brief: as §1
# [12] = biological target: Gal(a1-2)Gal
# Method in brief: as §1
# [13] = biological target: Gal(a1-3)Gal
# Method in brief: as §1
# [14] = biological target: Gal(a1-3)Gal(b1-3)GlcNAc
# Method in brief: as §1
# [15] = biological target: Gal(a1-3)Gal(b1-4)Glc
# Method in brief: as §1
# [16] = biological target: Gal(a1-3)Gal(b1-4)GlcNAc
# Method in brief: as §1
# [17] = biological target: Gal(a1-3)Gal(b1-4)[Fuc(a1-3)]GlcNAc
# Method in brief: as §1
# [18] = biological target: Gal(a1-3)GalNAc
# Method in brief: as §1
# [19] = biological target: Gal(a1-3)[Gal(a1-4)]Gal(b1-4)GlcNAc
# Method in brief: as §1
# [20] = biological target: Gal(a1-4)Gal(b1-4)Glc
# Method in brief: as §1
# [21] = biological target: Gal(a1-4)Gal(b1-4)GlcNAc
# Method in brief: as §1
# [22] = biological target: Gal(a1-4)GlcNAc
# Method in brief: as §1
# [23] = biological target: Gal(a1-6)Glc
# Method in brief: as §1
# [24] = biological target: Gal(b1-2)Gal
# Method in brief: as §1
# [25] = biological target: Gal(b1-3)Gal
# Method in brief: as §1
# [26] = biological target: Gal(b1-3)Gal(b1-4)GlcNAc
# Method in brief: as §1
# [27] = biological target: Gal(b1-3)GalNAc
# Method in brief: as §1
# [28] = biological target: Gal(b1-3)GalNAc(b1-3)Gal(a1-4)Gal(b1-4)Glc
# Method in brief: as §1
# [29] = biological target: Gal(b1-3)GalNAc(b1-4)Gal(b1-4)Glc
# Method in brief: as §1
# [30] = biological target: Gal(b1-3)GalNAc(b1-4)[Neu5Ac(a2-3)]Gal(b1-4)Glc
# Method in brief: as §1
# [31] = biological target: Gal(b1-3)GlcNAc
# Method in brief: as §1
# [32] = biological target: Gal(b1-3)GlcNAc(b1-3)Gal(b1-3)GlcNAc
# Method in brief: as §1
# [33] = biological target: Gal(b1-3)GlcNAc(b1-3)Gal(b1-4)Glc
# Method in brief: as §1
# [34] = biological target: Gal(b1-3)GlcNAc(b1-3)Gal(b1-4)GlcNAc
# Method in brief: as §1
# [35] = biological target: Gal(b1-3)[Fuc(a1-4)]GlcNAc
# Method in brief: as §1
# [36] = biological target: Gal(b1-3)[Fuc(a1-4)]GlcNAc(b1-3)Gal(b1-3)[Fuc(a1-4)]GlcNAc
# Method in brief: as §1
# [37] = biological target: Gal(b1-3)[Fuc(a1-4)]GlcNAc(b1-3)Gal(b1-4)GlcNAc
# Method in brief: as §1
# [38] = biological target: Gal(b1-3)[Fuc(a1-4)]GlcNAc(b1-3)Gal(b1-4)[Fuc(a1-3)]GlcNAc
# Method in brief: as §1
binder,measurement,setting,value
"RfpC (Mycobacterium tuberculosum), O07747 (protein) MHHHHHHSSGRENLYFQGHMASKSAMAAGLVTASMSLSTAVAHAGPSPNWDAVAQCESGGNWAANTGNGKYGGLQFKPATWAAFGGVGNPAAASREQQIAVANRVLAEQGLDAWPTCGAASGLPIALWSKPAQGIKGS",glycan array binding signal (z-score),[1],-0.802
same,glycan array binding signal (z-score),[2],-0.561
same,glycan array binding signal (z-score),[3],-1.47
same,glycan array binding signal (z-score),[4],-0.13
same,glycan array binding signal (z-score),[5],-0.044
same,glycan array binding signal (z-score),[6],-1.53
same,glycan array binding signal (z-score),[7],0.264
same,glycan array binding signal (z-score),[8],1.7
same,glycan array binding signal (z-score),[9],0.149
same,glycan array binding signal (z-score),[10],-1.09
same,glycan array binding signal (z-score),[11],-0.51
same,glycan array binding signal (z-score),[12],0.019
same,glycan array binding signal (z-score),[13],-1.24
same,glycan array binding signal (z-score),[14],-1.2
same,glycan array binding signal (z-score),[15],0.44
same,glycan array binding signal (z-score),[16],-0.872
same,glycan array binding signal (z-score),[17],-0.821
same,glycan array binding signal (z-score),[18],-0.007
same,glycan array binding signal (z-score),[19],2.24
same,glycan array binding signal (z-score),[20],-0.838
same,glycan array binding signal (z-score),[21],0.65
same,glycan array binding signal (z-score),[22],0.343
same,glycan array binding signal (z-score),[23],-0.418
same,glycan array binding signal (z-score),[24],0.853
same,glycan array binding signal (z-score),[25],-0.47
same,glycan array binding signal (z-score),[26],-0.276
same,glycan array binding signal (z-score),[27],-0.749
same,glycan array binding signal (z-score),[28],2.48
same,glycan array binding signal (z-score),[29],-0.364
same,glycan array binding signal (z-score),[30],-0.818
same,glycan array binding signal (z-score),[31],-0.353
same,glycan array binding signal (z-score),[32],-1.04
same,glycan array binding signal (z-score),[33],-0.841
same,glycan array binding signal (z-score),[34],-0.74
same,glycan array binding signal (z-score),[35],-0.507
same,glycan array binding signal (z-score),[36],-0.622
same,glycan array binding signal (z-score),[37],-1.24
same,glycan array binding signal (z-score),[38],-0.435
